Results are given in words; binding and its absence hold for the method and conditions named. In cells and extracts the contact can be indirect. These calls come from enrichment with a bait or labelling near it, and not all partners need be listed.
B1: Arhgap23 (protein, UniProt Q69ZH9 1-1483)
chain: MNGVAFCLVGIPPRPEPRPPQLPLGPRDGCSSGRPLPWPGPRTLLLRKSLQDGFGFTLRHFIVYPPESAVHCILKEEENGGRGGGPSPRHRLEPMDTIFVKNVKDGGPAHRAGLRTGDRLVKVNGESIIGKTYSQVIGLIQNSDDTLELSIMPKDEDILQLAYSQDAYLKGNEPYSGEARSIPEPPPLCYPRKTYAPPTRAPAWATMVPEPISALPPDPRSPAAWSDPGSRVPSATRAHLDNSSLGMSQPRPSPGAFPHLPSESRTPRAFPEPGSRVLPSRLECQQALSHWLSNQIPRRAGERRCPAMPPRARSASQDRLEDVTTHHPWPCSTSQDALSQLGQEGWHRARSDDYLSRATRSAEALGPGALVSPRLERCGWASQRPSARTSACPSRDLTQAPPPSGLQGLDDIGYIGYRSYSPSFQRRTGLLHALSFRDSPFGGLPTFSLAQSPASFPPEASEPPRVVRPDPSTRALEPPAEDHRDEVVLRQKPPTGRKVQLTPARQMNLGFGDESPEPEARGERLGRKVAPLATTEDSLASIPFIDEPTSPSIDLQAKHVPASAVVSSAMNSAPVLGTSPSSPTFTFALSRHYSQDCSSIKAGRRSSYLLAITTERSKSCDDGLNTFRDEGRVLRRLPSRVPSLRVLRSFFTDGSLDSWGTSEDADAPSKRHSTSDLSDATFSDIRREGWLYYKQILTKKGKKAGGGLRQWKRVYAVLRARSLSLSKERREPGPAAAGAAAAGAGEDEAAPVCIGSCLVDISYSETKRRHVFRLTTADFCEYLFQAEDRDDMLGWIRAIRENSRAEGEDPGCANQALISKKLNDYRKVSHSSGPKADSSPKGSRGLGGLKSEFLKQTAVRGLRTQEQPPGSKEDSVAAPKTPWGINIIKKNKKAAPRAFGIRLEECQPATENQRVPLIVAACCRIVEARGLESTGIYRVPGNNAVVSSLQEQLNRGPSDINLQDERWQDLNVISSLLKAFFRKLPEPLFTDDKYNDFIEANRIEDSRERMKTLRKLIRDLPGHYYETLKFLVGHLKTIADHSEKNKMEPRNLALVFGPTLVRTSEDNMTDMVTHMPDRYKIVETLIQHSDWFFSDDEDKGERTPVDDKEPQSVPNIEYLLPNIGRTVPPSDPGSDSTTCSSAKSKGSWVPKKEPYAREMLAISFISAVNRKRKKRREARGLGSSTDDDSEQEAHKAAVGTQEPPEGQLPGPAAEEAPGRLSPPTAPDERPAADTRSIVSGYSTLSTMDRSVCSGTGGRRAGAGDEADDERSELSHVETDTEGGAGPGGRLSRRPSFSSHHLMPCDTLARRRLSRSRAEAEGPGAGTARACPRGPEPPGSASSSSQESLRPPAAAPALGSRPSRVEALRLRLRGTADDMLAVRLRRPLSPETRRRRSSWRRHTVVVQSPLTDLNFNEWKELGGGGPQESVGVRPHSDNKDSGLSSLESTKARASSAASLPSGDLGALQGLPQRRSAAARLHQCL
B2: Abcd3 (protein, UniProt P55096 1-659)
chain: MAAFSKYLTARNTSLAGAAFLLLCLLHKRRRALGLHGKKSGKPPLQNNEKEGKKERAVVDKVFLSRLSQILKIMVPRTFCKETGYLLLIAVMLVSRTYCDVWMIQNGTLIESGIIGRSSKDFKRYLFNFIAAMPLISLVNNFLKYGLNELKLCFRVRLTRYLYEEYLQAFTYYKMGNLDNRIANPDQLLTQDVEKFCNSVVDLYSNLSKPFLDIVLYIFKLTSAIGAQGPASMMAYLLVSGLFLTRLRRPIGKMTIMEQKYEGEYRYVNSRLITNSEEIAFYNGNKREKQTIHSVFRKLVEHLHNFIFFRFSMGFIDSIIAKYVATVVGYLVVSRPFLDLAHPRHLHSTHSELLEDYYQSGRMLLRMSQALGRIVLAGREMTRLAGFTARITELMQVLKDLNHGRYERTMVSQQEKGIEGAQASPLVPGAGEIINTDNIIKFDHVPLATPNGDILIQDLSFEVRSGANVLICGPNGCGKSSLFRVLGELWPLFGGRLTKPERGKLFYVPQRPYMTLGTLRDQVIYPDGKEDQKKRGISDQVLKEYLDNVQLGHILEREGGWDSVQDWMDVLSGGEKQRMAMARLFYHKPQFAILDECTSAVSVDVEDYIYSHCRKVGITLFTVSHRKSLWKHHEYYLHMDGRGNYEFKKITEDTVEFGS

The chains behind the UniProt entries cited, without tags or fusion partners.
UniProt Q60857: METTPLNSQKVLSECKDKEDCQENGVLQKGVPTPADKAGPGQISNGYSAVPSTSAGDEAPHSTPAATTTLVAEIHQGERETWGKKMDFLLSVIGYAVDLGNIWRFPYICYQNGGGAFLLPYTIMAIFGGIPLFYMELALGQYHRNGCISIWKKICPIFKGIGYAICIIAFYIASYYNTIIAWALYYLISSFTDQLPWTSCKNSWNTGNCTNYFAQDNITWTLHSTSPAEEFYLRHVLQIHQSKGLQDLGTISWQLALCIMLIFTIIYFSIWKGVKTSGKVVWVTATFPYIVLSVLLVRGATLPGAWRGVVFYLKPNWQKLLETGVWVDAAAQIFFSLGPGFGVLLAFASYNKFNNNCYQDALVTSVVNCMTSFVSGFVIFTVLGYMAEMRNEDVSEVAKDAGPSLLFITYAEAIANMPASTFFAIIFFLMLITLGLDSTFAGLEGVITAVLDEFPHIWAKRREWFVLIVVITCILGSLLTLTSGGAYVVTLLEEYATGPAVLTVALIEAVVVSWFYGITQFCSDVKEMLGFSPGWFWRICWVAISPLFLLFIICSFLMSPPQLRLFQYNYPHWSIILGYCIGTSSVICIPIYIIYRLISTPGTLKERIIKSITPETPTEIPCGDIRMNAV
UniProt P28652: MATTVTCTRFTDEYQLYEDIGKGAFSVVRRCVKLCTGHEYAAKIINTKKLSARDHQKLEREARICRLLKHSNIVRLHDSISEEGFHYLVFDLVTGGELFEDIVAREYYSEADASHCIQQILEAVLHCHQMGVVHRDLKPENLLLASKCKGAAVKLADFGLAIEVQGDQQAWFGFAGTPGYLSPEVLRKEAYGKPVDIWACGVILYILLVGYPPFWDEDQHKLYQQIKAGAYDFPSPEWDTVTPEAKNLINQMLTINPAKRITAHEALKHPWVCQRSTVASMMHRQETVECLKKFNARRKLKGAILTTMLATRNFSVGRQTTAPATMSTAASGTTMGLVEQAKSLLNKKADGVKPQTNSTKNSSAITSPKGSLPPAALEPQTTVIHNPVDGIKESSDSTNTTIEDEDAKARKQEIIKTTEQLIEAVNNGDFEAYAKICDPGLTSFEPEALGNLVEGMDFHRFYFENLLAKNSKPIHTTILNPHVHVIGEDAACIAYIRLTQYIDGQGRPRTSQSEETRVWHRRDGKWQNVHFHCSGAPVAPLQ
UniProt Q8BK63: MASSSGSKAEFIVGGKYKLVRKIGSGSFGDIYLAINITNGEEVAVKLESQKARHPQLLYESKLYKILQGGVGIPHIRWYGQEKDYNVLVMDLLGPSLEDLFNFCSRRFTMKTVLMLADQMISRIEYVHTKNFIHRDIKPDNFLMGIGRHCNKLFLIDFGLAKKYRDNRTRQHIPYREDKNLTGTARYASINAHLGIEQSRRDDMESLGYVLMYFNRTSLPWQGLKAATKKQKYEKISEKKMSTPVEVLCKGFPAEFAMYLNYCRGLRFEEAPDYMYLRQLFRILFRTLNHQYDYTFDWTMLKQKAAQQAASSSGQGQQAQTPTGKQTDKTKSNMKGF
UniProt Q9D898: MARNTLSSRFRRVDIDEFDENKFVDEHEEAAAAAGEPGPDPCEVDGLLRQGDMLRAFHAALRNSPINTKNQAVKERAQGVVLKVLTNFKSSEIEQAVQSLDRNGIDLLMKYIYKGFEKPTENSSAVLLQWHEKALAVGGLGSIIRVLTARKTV
UniProt Q80UP3: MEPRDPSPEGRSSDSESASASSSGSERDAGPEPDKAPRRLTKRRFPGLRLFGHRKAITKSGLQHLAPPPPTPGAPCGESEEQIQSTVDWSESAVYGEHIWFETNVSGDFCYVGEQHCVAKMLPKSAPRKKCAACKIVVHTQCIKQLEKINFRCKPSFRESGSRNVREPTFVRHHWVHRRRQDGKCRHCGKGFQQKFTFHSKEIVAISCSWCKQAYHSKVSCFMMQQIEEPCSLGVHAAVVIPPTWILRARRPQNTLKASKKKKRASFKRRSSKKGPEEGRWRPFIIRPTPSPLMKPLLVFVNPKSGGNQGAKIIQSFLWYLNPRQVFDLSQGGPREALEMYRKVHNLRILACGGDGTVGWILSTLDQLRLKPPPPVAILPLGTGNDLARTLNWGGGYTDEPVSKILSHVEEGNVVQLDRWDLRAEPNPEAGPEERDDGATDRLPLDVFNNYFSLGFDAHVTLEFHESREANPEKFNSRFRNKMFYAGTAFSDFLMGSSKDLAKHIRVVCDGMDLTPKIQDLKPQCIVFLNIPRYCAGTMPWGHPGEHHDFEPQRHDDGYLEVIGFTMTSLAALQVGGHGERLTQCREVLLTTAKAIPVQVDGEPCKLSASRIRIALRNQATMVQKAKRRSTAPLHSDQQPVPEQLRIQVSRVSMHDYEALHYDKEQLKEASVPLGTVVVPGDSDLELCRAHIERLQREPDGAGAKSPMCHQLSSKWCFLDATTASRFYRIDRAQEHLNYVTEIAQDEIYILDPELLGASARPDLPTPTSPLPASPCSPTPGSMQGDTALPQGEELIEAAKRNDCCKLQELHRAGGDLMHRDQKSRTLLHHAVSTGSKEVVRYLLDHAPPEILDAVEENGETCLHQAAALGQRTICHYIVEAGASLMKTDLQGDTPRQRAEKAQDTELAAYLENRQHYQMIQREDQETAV
UniProt Q811P8: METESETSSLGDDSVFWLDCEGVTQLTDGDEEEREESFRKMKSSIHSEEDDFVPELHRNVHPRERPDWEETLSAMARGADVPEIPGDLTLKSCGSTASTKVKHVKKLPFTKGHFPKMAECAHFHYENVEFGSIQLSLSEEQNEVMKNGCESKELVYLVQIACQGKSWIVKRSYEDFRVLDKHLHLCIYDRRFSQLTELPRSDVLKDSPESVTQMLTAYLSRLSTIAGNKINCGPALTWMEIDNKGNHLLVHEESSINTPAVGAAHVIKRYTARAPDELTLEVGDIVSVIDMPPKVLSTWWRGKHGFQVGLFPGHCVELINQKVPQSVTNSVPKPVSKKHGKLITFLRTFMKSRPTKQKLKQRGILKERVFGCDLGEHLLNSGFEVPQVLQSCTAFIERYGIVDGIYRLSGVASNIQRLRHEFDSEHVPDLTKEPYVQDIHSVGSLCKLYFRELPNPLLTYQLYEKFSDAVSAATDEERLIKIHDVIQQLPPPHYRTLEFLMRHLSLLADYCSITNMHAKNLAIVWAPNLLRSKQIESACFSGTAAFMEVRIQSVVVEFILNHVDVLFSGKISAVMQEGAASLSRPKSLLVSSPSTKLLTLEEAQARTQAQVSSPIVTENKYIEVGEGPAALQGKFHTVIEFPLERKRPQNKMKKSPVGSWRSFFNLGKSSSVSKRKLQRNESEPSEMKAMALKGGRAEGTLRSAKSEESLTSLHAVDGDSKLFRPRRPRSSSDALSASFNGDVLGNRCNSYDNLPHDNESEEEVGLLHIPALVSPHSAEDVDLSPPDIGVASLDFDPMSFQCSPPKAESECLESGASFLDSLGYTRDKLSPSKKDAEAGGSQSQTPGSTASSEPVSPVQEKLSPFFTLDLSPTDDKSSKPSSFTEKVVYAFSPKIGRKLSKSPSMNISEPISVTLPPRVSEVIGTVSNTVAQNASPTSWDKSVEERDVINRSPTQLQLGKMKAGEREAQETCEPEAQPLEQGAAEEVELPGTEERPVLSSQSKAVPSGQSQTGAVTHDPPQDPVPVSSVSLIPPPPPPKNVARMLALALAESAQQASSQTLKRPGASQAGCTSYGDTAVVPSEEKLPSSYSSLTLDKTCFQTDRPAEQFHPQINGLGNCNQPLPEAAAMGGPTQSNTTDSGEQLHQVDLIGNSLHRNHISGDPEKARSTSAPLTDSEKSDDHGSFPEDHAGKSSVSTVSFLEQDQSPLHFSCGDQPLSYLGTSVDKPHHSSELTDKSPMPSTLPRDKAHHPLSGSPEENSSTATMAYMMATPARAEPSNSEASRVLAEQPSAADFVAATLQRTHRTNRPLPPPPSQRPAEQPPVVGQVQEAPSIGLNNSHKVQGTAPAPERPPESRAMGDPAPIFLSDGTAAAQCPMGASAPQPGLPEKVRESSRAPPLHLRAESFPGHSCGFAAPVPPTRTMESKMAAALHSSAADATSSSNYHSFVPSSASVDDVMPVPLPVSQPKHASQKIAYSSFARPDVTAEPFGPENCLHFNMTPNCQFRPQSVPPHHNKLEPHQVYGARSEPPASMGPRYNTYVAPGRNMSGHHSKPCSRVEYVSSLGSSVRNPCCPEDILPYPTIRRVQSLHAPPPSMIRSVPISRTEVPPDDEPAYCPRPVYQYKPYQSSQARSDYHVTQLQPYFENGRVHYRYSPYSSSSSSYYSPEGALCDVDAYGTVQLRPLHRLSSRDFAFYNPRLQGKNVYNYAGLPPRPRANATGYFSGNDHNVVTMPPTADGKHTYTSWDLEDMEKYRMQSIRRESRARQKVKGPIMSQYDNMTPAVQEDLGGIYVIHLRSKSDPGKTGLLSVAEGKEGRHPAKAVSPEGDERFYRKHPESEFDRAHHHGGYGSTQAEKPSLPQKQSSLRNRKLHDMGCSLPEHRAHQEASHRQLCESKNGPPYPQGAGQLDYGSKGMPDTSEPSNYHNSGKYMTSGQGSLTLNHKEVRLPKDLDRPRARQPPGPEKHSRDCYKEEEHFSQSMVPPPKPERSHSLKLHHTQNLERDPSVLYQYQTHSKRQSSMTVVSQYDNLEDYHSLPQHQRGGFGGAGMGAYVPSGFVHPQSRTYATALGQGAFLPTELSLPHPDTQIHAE
UniProt Q03141: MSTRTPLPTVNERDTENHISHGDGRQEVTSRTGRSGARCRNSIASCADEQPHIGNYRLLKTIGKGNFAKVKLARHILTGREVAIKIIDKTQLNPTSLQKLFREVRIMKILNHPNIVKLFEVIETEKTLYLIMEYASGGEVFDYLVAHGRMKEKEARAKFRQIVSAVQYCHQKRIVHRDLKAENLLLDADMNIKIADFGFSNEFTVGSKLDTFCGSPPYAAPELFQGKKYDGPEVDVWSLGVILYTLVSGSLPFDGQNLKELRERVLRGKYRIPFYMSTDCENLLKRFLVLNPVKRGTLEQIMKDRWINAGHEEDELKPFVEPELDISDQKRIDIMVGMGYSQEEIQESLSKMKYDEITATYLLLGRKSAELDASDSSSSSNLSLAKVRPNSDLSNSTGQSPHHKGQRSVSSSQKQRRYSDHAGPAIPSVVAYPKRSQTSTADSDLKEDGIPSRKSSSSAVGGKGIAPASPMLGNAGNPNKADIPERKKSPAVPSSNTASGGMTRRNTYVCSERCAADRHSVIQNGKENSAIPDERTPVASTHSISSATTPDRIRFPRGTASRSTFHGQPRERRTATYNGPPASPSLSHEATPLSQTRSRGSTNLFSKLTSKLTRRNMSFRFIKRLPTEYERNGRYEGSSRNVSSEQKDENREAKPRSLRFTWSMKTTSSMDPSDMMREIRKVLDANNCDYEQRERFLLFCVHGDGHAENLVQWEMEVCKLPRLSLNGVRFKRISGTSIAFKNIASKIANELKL
UniProt Q63844: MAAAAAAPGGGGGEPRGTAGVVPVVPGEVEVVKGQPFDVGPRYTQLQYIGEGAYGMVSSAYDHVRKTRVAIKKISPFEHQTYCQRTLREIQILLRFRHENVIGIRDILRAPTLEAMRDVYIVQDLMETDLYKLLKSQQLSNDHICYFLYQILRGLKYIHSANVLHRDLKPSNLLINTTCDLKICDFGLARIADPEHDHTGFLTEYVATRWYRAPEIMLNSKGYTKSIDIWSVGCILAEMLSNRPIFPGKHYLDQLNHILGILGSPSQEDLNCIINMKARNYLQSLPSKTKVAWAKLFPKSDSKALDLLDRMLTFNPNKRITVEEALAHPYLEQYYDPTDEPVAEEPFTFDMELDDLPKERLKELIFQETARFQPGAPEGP
UniProt Q8CIP4: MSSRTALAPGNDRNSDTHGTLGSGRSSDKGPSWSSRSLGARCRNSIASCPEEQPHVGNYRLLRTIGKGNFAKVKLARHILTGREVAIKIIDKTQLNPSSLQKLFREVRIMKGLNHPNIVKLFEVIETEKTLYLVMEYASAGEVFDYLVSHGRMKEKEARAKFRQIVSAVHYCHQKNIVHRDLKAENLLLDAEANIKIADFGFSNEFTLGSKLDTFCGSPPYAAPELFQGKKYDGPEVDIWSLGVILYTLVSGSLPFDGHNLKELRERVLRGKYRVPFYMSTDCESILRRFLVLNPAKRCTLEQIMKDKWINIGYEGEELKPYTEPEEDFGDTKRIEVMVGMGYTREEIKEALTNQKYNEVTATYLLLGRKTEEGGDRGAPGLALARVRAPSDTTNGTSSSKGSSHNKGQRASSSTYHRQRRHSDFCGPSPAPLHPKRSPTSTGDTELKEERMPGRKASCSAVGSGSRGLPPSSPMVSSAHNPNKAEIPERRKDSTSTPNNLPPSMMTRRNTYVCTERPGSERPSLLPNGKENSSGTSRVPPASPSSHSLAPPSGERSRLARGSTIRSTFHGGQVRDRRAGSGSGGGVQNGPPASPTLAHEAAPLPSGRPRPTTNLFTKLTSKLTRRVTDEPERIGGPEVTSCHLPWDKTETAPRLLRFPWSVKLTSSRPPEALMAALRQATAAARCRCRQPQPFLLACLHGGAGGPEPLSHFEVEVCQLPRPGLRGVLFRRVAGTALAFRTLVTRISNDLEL

Target: serotonin transporter, wildtype (WT SERT) (mouse (endogenous in midbrain synaptosomes)) (UniProt Q60857)
Test: affinity purification with mass spectrometry; SERT immunoprecipitated with C-terminal anti-SERT serum #48 cross-linked to protein A Dynabeads from midbrain synaptosomes (lysed in PBS + 0.7% DDM, 4°C) of WT, SERT Ala56 and SERT KO (negative control) mice; in-gel tryptic digestion, 8-step MudPIT LC-MS/MS; label-free quantification

binding, binds:
catalytic C subunit of the PP2A holoenzyme (from UniProt P63330), Myo9a (from UniProt Q8C170 1-2542), calcium/calmodulin-dependent protein kinase type II subunit beta (from UniProt P28652 1-542), SH3 and multiple ankyrin repeat domains protein 3 (from UniProt Q4ACU6 1-1730), Arhgap21 (from UniProt Q6DFV3 1-1945), Gria4 (from UniProt Q9Z2W8 21-902), Phkg1 (from UniProt P07934 1-388), Cdk18 (from UniProt Q04899 1-451), Mast1 (from UniProt Q9R1L5 1-1570), Ppp1ca (from UniProt P62137 1-330), Csnk1a1 (from UniProt Q8BK63 1-337), Agap2 (from UniProt Q3UHD9 1-1186), Magi2 (from UniProt Q9WVQ1 1-1275), Arpc5l (from UniProt Q9D898 1-153), Myo18a (from UniProt Q9JMH9 1-2050), Gria3 (from UniProt Q9Z2W9 23-888), Dgkz (from UniProt Q80UP3 1-929), Arhgap32 (from UniProt Q811P8 1-2089), Mthfd1 (from UniProt Q922D8 1-935), Bmp2k (from UniProt Q91Z96 1-1138), Mark3 (from UniProt Q03141 1-753), Mitogen-activated protein kinase 3 (from UniProt Q63844 1-380), NMDA receptor 2 (Grin2a) (from UniProt P35436 23-1464), Mark4 (from UniProt Q8CIP4 1-752), Macf1 (from UniProt Q9QXZ0 1-7354), Srgap3 (from UniProt Q812A2 1-1099), Cdc42bpb (from UniProt Q7TT50 1-1713), Sipa1l1 (from UniProt Q8C0T5 1-1782), Prkar2a (from UniProt P12367 1-401), Csnk2a1 (from UniProt Q60737 1-391), B1, B2

Source: publication PMC7295033
